# According to the supplement of paper PMC12067093, “Discovery and optimisation of a covalent ligand for TRIM25 and its application to targeted protein ubiquitination” (Chemical Science, 2025):
# Sequences of proteins named here, by UniProt entry; tags and fusion partners are left off. A change or cut given only in a name is not applied to a line headed by its entry.
# UniProt Q9P260: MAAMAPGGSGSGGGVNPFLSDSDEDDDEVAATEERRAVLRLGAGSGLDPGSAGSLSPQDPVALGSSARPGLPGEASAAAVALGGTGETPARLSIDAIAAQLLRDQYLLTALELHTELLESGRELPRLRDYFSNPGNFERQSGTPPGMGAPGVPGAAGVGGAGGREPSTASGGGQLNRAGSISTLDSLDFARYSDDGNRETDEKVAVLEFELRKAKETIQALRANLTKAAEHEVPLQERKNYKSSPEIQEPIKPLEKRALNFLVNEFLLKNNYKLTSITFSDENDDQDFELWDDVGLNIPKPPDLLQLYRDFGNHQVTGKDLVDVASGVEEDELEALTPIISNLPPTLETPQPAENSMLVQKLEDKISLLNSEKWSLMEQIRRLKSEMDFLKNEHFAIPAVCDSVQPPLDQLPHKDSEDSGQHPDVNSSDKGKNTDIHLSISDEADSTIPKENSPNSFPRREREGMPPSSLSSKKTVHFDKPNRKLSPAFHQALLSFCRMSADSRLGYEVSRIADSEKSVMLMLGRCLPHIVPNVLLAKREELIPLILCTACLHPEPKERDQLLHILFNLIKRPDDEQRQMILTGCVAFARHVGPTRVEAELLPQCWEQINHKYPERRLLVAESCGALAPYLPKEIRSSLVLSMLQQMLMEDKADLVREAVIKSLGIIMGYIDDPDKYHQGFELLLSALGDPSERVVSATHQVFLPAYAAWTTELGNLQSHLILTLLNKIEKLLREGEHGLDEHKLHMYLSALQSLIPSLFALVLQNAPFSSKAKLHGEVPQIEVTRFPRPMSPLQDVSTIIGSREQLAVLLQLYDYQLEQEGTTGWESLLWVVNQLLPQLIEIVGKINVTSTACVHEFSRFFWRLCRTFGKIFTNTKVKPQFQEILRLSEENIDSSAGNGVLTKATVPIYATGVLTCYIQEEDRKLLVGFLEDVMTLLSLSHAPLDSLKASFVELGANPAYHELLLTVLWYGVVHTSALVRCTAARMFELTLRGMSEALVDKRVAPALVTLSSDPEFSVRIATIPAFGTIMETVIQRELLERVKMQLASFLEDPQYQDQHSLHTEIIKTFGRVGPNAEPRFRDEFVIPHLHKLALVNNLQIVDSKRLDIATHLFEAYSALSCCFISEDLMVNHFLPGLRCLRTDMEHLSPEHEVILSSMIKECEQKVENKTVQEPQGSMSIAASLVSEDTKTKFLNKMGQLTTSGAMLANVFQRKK
# Some of the results follow.
# Biological target: RELCH_Q9P260_526_CLPHIVPNVLLAK (UniProt Q9P260)
# Test: probe-labelled cysteine peptide fold change vs DMSO (competition) (log2 fold change); higher = less target engagement (more negative = stronger competition)
# Conditions: THP-1, incubation time: 4 h
# 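Note: competitive chemoproteomic profiling in live THP-1 cells with an iodoacetamide desthiobiotin (IA-DTB) probe, comparing probe-labelled peptide intensities in compound-treated cells against DMSO-treated controls.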
compound,measurement,setting,value
CC1Cc2ccccc2N1C(=O)C1CCCN(C(=O)CCl)C1 (mixture of isomers) [TRIM25 ligand 11 (diastereomer mixture)],probe-labelled cysteine peptide fold change,10 µM,-0.0429
same,probe-labelled cysteine peptide fold change,50 µM,0.0144
